The supplement of paper PMC10338343
± gives the standard deviation. Only a part is listed here, and it is no random draw. Many entries were measured with a wide error.

test system: EfPiwi piRISC loaded with piRNA #1 (26 nt); test: pre-steady-state target cleavage rate (min^-1); guide: piRNA #1 5'p-UGAGGUAGUAGGUUGUAUAGUAUCCA; MIWI and MILI are mouse PIWI proteins and EfPiwi is from a freshwater sponge; tags in brackets are library labels; higher = faster piRNA-guided slicing of the target; details: auxiliary factor: 500 nM Ephydatia muelleri Gtsf1
Summary of the method: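 Cleave-'n-Seq reactions paired 0.1 nM transcribed, DNA-blocked target RNA library with 1 nM active affinity-purified piRISC holding one synthetic guide, plus or minus 500 nM GTSF1 partner protein, in HEPES–potassium acetate buffer at 33 °C for 0–8 or 0–960 min. After sequencing of uncleaved targets and normalisation to depth and weakly complementary targets, the pre-steady-state cleavage rate was taken from a burst-and-steady-state fit. Three trials were pooled, and k3 was capped at 0.0001 min^-1.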

Q: With GGAGACCUAUGAUAUGUUCCUACAACGUCA as the sequence, how does the “pre-steady-state target cleavage rate” value read?
A: Its value is < 0.0001.

Q: For GGAGUGGAUACAAUACAACCUACUUCCUCA, which “pre-steady-state target cleavage rate” value is on record?
A: Its value is 0.00231 ± 0.0024.

Q: Which “pre-steady-state target cleavage rate” value does the source give for GGAGAGGAUACUAUAGUACCUACUACCUCA here?
A: Its value is 0.00261 ± 0.004.

Q: How did the “pre-steady-state target cleavage rate” value turn out when GGAGACCAUUGAAUACAACCUACUACCUCA was run?
A: The value was 0.00581 ± 0.0033.

Q: With GGAGACGUUACUAAACAACCUACUACCUCA as the sequence, how does the “pre-steady-state target cleavage rate” value read?
A: Its value is 0.00366 ± 0.0038.

Q: Which “pre-steady-state target cleavage rate” value does the source give for GGAGACCUAUGAUAACAACGUAGUACCUCA here?
A: The value was 0.000164 ± 0.018.

Q: With GGAGACCAUACAAUACAACGUACUACCUCA as the sequence, how does the “pre-steady-state target cleavage rate” value read?
A: Its value is 0.00181 ± 0.0031.

Q: Which “pre-steady-state target cleavage rate” value does the source give for GGAGACGAUAGUAUACAACCUACUUCCUCA here?
A: The value was 0.00235 ± 0.0025.

Q: For GGAGAGGAUACUAUUCAACCUACUACGUCA, which “pre-steady-state target cleavage rate” value is on record?
A: The value was 0.00309 ± 0.0023.

Q: With GGAGACCUUACAAUAGAACCUACUACCUCA as the sequence, how does the “pre-steady-state target cleavage rate” value read?
A: Its value is 0.00085 ± 0.0074.

Q: With GGAGAGGAUACAAUACAACCUACUACGUCA as the sequence, how does the “pre-steady-state target cleavage rate” value read?
A: Its value is 0.00333 ± 0.0019.

Q: With GGAGACCUAUCAAUACAACCUACUACCACA as the sequence, how does the “pre-steady-state target cleavage rate” value read?
A: The value was 0.000786 ± 0.011.

Q: With GGAGACGAUACUAUUGUACCUACUACCUCA as the sequence, how does the “pre-steady-state target cleavage rate” value read?
A: The value was 0.00097 ± 0.0058.

Q: Which “pre-steady-state target cleavage rate” value does the source give for GGAGAGGAUACUAAACAACCUACUUCCUCA here?
A: Its value is 0.00239 ± 0.0016.

Q: For GGAGUGGAUACUAAACAACCAACUACCUCA, which “pre-steady-state target cleavage rate” value is on record?
A: The value was 0.0031 ± 0.0017.

Q: With GGAGACCUAUGAUAACAACCUACAACGUCA as the sequence, how does the “pre-steady-state target cleavage rate” value read?
A: Its value is 0.000205 ± 0.021.

Q: How did the “pre-steady-state target cleavage rate” value turn out when “GGAGUGGAUACUAUACAAGGAUGAUGGAGA [g13:g26:cont:t1A]” was run?
A: The value was 0.000346 ± 0.01.

Q: GGAGACCUAUGUAUACAACCUACUACCUGA was tested. Which “pre-steady-state target cleavage rate” value did it give?
A: The value was 0.00194 ± 0.0039.

Q: For GGAGACCAUUCUUUACAACCUACUACCUCA, which “pre-steady-state target cleavage rate” value is on record?
A: The value was 0.0111 ± 0.0056.

Q: How did the “pre-steady-state target cleavage rate” value turn out when GGAGACCUAUCUAAACAUCCUACUACCUCA was run?
A: The value was 0.00214 ± 0.0039.

Q: With GGAGUGGAUACUAUGACAACCUACUACCUCA as the sequence, how does the “pre-steady-state target cleavage rate” value read?
A: The value was 0.0114 ± 0.0053.

Q: With GGAGACCUAACUAAACAAGCUACUACCUCA as the sequence, how does the “pre-steady-state target cleavage rate” value read?
A: The value was 0.0016 ± 0.008.

Q: For GGAGACCUAUCUAUACAACCUAGUACCACA, which “pre-steady-state target cleavage rate” value is on record?
A: The value was 0.00205 ± 0.0043.

Q: GGAGACGAUACUAUACAACCUACUACUUCA was tested. Which “pre-steady-state target cleavage rate” value did it give?
A: The value was 0.00983 ± 0.0039.
